The target of assay [1] is T1, BACE-1 (T7-BACE1(A14-T454/R56K/R57K)) (Homo sapiens (Human)) (UniProt P56817).
T1 sequence: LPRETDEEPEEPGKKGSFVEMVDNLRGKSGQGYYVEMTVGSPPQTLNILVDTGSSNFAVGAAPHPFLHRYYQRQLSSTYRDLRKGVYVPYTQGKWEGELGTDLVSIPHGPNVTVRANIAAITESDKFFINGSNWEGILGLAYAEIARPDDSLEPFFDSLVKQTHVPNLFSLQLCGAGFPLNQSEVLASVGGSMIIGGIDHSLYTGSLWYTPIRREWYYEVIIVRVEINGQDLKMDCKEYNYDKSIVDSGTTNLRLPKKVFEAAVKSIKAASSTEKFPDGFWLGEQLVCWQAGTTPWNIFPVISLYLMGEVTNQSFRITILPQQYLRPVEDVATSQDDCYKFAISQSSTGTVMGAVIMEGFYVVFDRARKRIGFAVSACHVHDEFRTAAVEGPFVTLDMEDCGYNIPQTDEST
The assay can be described thus: X-ray crystallography, peptide soaked into BACE-1/DPH-153979 co-crystal.

By UniProt entry, the sequences of proteins in these tests, tags left out. Where a name states a change or a piece, a line headed by the entry shows the natural chain unless it says otherwise. Residues count along the entry.
UniProt P56817, residues 14-454: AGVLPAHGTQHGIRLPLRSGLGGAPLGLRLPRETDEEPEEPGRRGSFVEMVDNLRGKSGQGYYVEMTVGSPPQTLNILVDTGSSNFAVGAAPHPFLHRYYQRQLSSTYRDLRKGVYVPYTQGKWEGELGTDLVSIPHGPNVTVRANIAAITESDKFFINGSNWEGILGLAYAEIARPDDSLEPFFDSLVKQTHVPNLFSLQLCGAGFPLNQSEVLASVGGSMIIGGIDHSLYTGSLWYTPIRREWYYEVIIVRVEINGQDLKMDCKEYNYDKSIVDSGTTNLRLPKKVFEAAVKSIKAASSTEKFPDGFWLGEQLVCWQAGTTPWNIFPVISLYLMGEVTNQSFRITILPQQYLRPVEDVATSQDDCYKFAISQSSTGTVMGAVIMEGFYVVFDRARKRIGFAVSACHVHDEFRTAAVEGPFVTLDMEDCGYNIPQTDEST

Assay [2] has as its target catalytic domain of human BACE purified from E. coli cells (human) (UniProt P56817). The assay can be described thus: fluorescence anisotropy binding assay. A general note: In fluorescence polarisation assays a small probe gives low polarisation when free and higher when bound to something large.

Results are given in words; binding and its absence hold for the method and conditions named. Some binding calls cover weakened binding; strength is not graded here.

Turning to NLTTYPYFIPLP (N-terminal acetyl (no C-terminal carboxy amide) in the synthetic peptide) […], the binding entry in assay [1] is given as “binds”.

As to YPYFIPL (C-terminal Alexa488 through a linker (n=1, FIG. 4)) [Molecule Y1 (YPYFIPL with C-terminal Alexa488)], in assay [2], the binding entry is “binds”.

(Values after US20070149763A1 (Bristol-Myers Squibb, published 2007).)
